{"source": "patent US8598333B2", "about": "“SiRNA silencing of genes expressed in cancer” (Alnylam Pharmaceuticals, Inc., priority 2006, dated 2013)", "test_system": "HT-29 colorectal adenocarcinoma cells", "test": "Apoptosis/Caspase 3/7 assay, HT-29", "type": "cell-based, human", "conditions": "HT-29, 50 or 100 uM", "note": "For at least one compound, name, drawing or mass did not settle the structure."}
{"compound": "CCOC(=O)C1=C(C)NC(=S)NC1c1cccc(O)c1", "note": "(stereo not shown) [Monastrol]", "values": [{"measurement": "Caspase 3/7 induction activity", "value": "resistant"}]}
